Data from patent publication US4684620A (Gibson-Stephens Neuropharmaceuticals, Inc., priority 1984, dated 1987).
Some peptides are written in HELM: one residue between dots, names in brackets for other building blocks, links after the first $.

Key:
[1] = general procedure: Boc solid-phase peptide synthesis; N-alpha-t-BOC-O-benzyl-L-Threonine chloromethylated resin; p-methylbenzhydrylamine resin (Examples VI, VII); DCC (preformed symmetrical anhydride); settings: whole synthesis
[2] = general procedure: Boc solid-phase peptide synthesis; p-methylbenzhydrylamine resin; DCC (preformed symmetrical anhydride); settings: whole synthesis; for isolated yield: scale of the general procedure 0.52 mmol
[3] = scale of the general procedure 0.52 mmol

Work on “PEPTIDE1{[dF].[Pen].F.[dW].K.T.[C3].T}$PEPTIDE1,PEPTIDE1,2:R3-7:R3$$$V2.0” yielded an isolated mass ([1]; scale 0.70 mmol) of 96 mg and an isolated yield ([1]; scale 0.70 mmol) of 17%.
“PEPTIDE1{[dF].[C3].F.[dW].K.T.[Pen].T}$PEPTIDE1,PEPTIDE1,2:R3-7:R3$$$V2.0” gave an isolated mass [1] of 76 mg and an isolated yield [1, 3] of 14%.
Substance “PEPTIDE1{[dF].[C3].F.[dW].K.T.[Pen].T.[am]}$PEPTIDE1,PEPTIDE1,2:R3-7:R3$$$V2.0” has an isolated mass [2] of 112 mg and an isolated yield [2] of 15%.
With “PEPTIDE1{[dF].[C3].F.[dW].K.T.[C3].T}$PEPTIDE1,PEPTIDE1,2:R3-7:R3$$$V2.0” the isolated mass ([1]; scale 0.70 mmol) was 157 mg and the isolated yield ([1]; scale 0.70 mmol) was 21%.
In the case of “PEPTIDE1{[dPhg].[Pen].F.[dW].K.T.[C3].T}$PEPTIDE1,PEPTIDE1,2:R3-7:R3$$$V2.0”, the isolated mass [1] is reported as “approximately 70 mg” and the isolated yield [1, 3] is reported as “ca 13%”.
In the case of “PEPTIDE1{[dF].[C3].Y.[dW].K.T.[Pen].T.[am]}$PEPTIDE1,PEPTIDE1,2:R3-7:R3$$$V2.0”, the isolated mass [2] is reported as 87 mg and the isolated yield [2] is reported as 12%.
With “PEPTIDE1{[dF].[C3].Y.[dW].K.T.[Pen].T}$PEPTIDE1,PEPTIDE1,2:R3-7:R3$$$V2.0” the “final HPLC purity” value ([1]; 214 nm, scale of the general procedure 0.52 mmol) was “(80%) pure”, the isolated mass ([1]; scale 0.52 mmol) was 91 mg and the isolated yield ([1]; scale 0.52 mmol) was 16% yield.
Substance “PEPTIDE1{[dF].[Pen].F.[dW].K.T.[Pen].T}$PEPTIDE1,PEPTIDE1,2:R3-7:R3$$$V2.0” has an isolated mass ([1]; scale 0.62 mmol) of 52 mg and an isolated yield ([1]; scale 0.62 mmol) of 7.7%.
